Test results: patent US11865126B2, “Method for treating anxiety disorders, headache disorders, and eating disorders with psilocybin” (priority 2019, dated 2024)
Entries after “also recorded” stand apart in the source; their conditions may differ. At least one compound was matched to its structure with a doubt left.

Tests used:
Format in all cases: in vivo, human
[1] = test system: healthy subjects; test: CANTAB Emotion Recognition Task (ERTPC); settings: 10 mg and 25 mg, Day 7
[2] = test system: healthy subjects; test: Social Value Orientation (SVO); settings: 10 mg and 25 mg, Day 7 and Day 84
Source text: In some embodiments, the Social Value Orientation (SVO) test is utilized to evaluate the safety and/or efficacy of psilocybin. The SVO Slider Measure has 6 primary items with 9 secondary (and optional) items. All of the items have the same general form. Each item is a resource allocation choice over a well-defined continuum of joint payoffs.
The following list of outcome measures are non-exhaustive. • a. The short-term change from Baseline (Day −1 [Visit 2]) to Day 7 (Visit 5) in cognitive measures of attention, spatial and working memory and executive function was measured by a composite score of the CANTAB Panel (Spatial Working Memory [SWM], Rapid Visual Information Processing [RVP], Paired Associates Learning [PAL]). • b. The short-term change from Baseline (Day −1 [Visit 2]) to Day 7 (Visit 5) in Social Cognition Panel scales (Pictorial Empathy Test [PET], Reading the Mind in the Eyes Test [RMET], Toronto Empathy Questionnaire [TEQ], Social Value Orientation [SVO], Scale of Social Responsibility [SSR]). • c. The change from Baseline (Day −1 [Visit 2]) to Day 28 (Visit 6) in cognitive measures of attention, spatial and working memory and executive function as measured by a composite score of the CANTAB Panel (SWM, RVP, PAL). • d. […] Reading the Mind in the Eyes Test (RMET) (performed at Visit 2, Visit 5, and Visit 7). • iii. […]

[3] = test system: left amygdala; test: fMRI emotional faces task (BOLD)

## CN(C)CCc1c[nH]c2cccc(OP(=O)(O)O)c12 [psilocybin]
[1]
  ERTPC, difference from placebo and between doses: No evidence of a difference; also recorded: No significant difference in performance
[2]
  SVO, change from baseline compared to placebo: No differences among treatment groups; also recorded: no difference; also recorded: no consistent or noteworthy trends
[3]; 4 weeks after both 1 mg and 25 mg, p<0.01
  Left amygdala responsivity to happy faces vs baseline: Significantly increased
[3]; dose and time not printed in sentence (25 mg, 4 weeks implied), trend level
  Left amygdala responsivity to fearful faces vs baseline: significantly decreased
[3]; p<0.01
  Left amygdala responsivity to fearful faces vs 4 weeks after 1 mg: significantly reduced
